The assay concerns the target T1, LAP (localization and purification) tagged human BBS4 (human) (UniProt Q96RK4).
T1 sequence: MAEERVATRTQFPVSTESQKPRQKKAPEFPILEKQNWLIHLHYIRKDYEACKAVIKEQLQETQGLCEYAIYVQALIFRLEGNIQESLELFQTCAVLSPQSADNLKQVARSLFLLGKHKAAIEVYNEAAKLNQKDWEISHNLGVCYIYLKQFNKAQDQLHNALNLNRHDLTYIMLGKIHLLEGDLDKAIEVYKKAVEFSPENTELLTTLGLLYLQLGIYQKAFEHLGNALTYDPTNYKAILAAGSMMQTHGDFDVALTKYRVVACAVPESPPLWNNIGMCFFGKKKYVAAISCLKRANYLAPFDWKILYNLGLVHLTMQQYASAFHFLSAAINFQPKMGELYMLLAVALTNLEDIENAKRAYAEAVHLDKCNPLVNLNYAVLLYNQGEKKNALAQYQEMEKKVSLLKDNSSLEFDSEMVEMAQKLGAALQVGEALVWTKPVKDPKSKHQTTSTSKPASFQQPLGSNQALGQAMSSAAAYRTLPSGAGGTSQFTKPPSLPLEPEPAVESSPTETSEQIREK
Nature of the assay: affinity purification with mass spectrometry; single-step IP with anti-GFP affinity beads from whole testis lysate of LAP-BBS4 transgenic and wild-type mice; 4-12% NuPAGE gel, silver stain, excised bands identified by LC-MS/MS.

These are yes or no findings as the source states them, for the method shown. In cells and extracts the contact can be indirect. A yes stands for co-enrichment or nearness to the bait. Other partners may have been found. Sequences can lack the tags named with a protein.

B1: azacytidine-induced protein 1 (Azi1), mouse testis (protein, UniProt Q62036 1-1060)
chain: MKGSRTITATPEGSPEAVDLSLIGLPPPMSQRPGSASATRSIFRSMSVATGSEPRKKALEATGPGGPRAINNLRRSNSTTQVNQSWTGSPRPAEPTDFLMLFEGSTSGRRRVASLSKASSEKEATWNVLDEQPRGLALPASAQSPSTLDSALGPRRKECPLAPSFTANNRSNKGAVGNCVTTMVHNHYASSKMVSPPKSSNQTAPSLNNIVKAAAREGGEGSDLGKPRKNLSSASQSARGTTGLLRRREVTEEEAERFIHQVNQAAVTIQRWYRCQVQRRRAGAAALEHLLASKREGQRQRLGGGNLLELHRQEEAARKKAREEKARQARQAAIQVLQQKRAQKASEAEHRRPKDRPETRAPEQPRPMQEPGCVTHPKANNAGASIYPTGPADPCPPASESSPEQWQSPEDKPQDIHSQGEARQDLAVSGSSRGKARARATLDDLLDTLKLLEEEPEPLPHPKAYHKDRYAWTDEEEDANSLTADNLEKFGKLSAAPGPPDDGTLLSEAKLQSIMTFLDEMEKSGQERPAPWRESLVLEAGSGSEGSTSVMRLKLELEEKKQAMALLQRALAQQRDLTVRRVKETEKELTRQLRQQKEQYEATIQRHLSFIDQLIEDKKVLSEKCEAVVAELKHGDQRCRERVAQMQEQHELEIKKLKELMSATEKIRREKWINEKTKKIKEITVRGLEPEIQKLIAKHKQEVRRLRGLHEAELQQREEQAAQRHLRQAEELRQHLDREREVLGQQERERAQQRFEQHLEQEQRALEQQRRRLYNEVAEEKERLGQQAARQRAELEELRQQLEESSAALTRALRAEFERSREEQERRHQMELKALKDQLEAERQAWVASCAKKEEAWLLTRERELKEEIRKGRDQEIELVIHRLEADMTLAKEESERAAESRVKRVRDKYETELSELEQSERKLQERCSELKGRLGEAEGEKERLQSLVRQKEKELEDLRAVNTQMCSERASLAQVVRQEFAEQLAASQEETQRVKVELAELQARQQVELDEVHRRVKTALARKEAAVNSLRKQHEAAVKRADHLEELLEQHKGSSLSSK
For the molecule B1, the binding entry was “binds”.
